# Hit rate of the full screen: of about 300,000 compounds, about 3,700 (1.2%) were called active. Inconclusive means that the source gave no clear call. Such entries were picked first, then a sample of the others. Calls follow the shape of the full dose curve; tested in HEK293 cells. Where the call is inconclusive, the potency comes from a doubtful curve fit.
# Assay: qHTS for Inhibitors of binding or entry into cells for Lassa Virus; also: nearly all actives have a fitted effect of over 50% in size
# Details: Lassa virus pseudotype entry inhibition, cell reporter; series mostly up to 37.9 µM
# Potency is read from the fitted curve at half-maximal effect.
row,Compound,Potency
1,Cc1cc(N2CCCC2=O)ccc1S(=O)(=O)NCCOc1ccccc1,"inconclusive: 11.2 µM [inhibitor, partial curve, poor fit]"
2,CC(C)c1nc2c(c(=O)c3ccccc3n2C)c(=O)n1CCc1ccccc1,"inconclusive: 25.1 µM [inhibitor, single point]"
3,CCOCCCNC(=O)C(c1ccc(C)cc1)N(Cc1cccs1)C(=O)c1ccccc1O (stereo not given),active: 11.2 µM
4,CCN1CCN(C(c2ccccc2)c2c(O)cc(C)n(Cc3ccco3)c2=O)CC1 (stereo not given),inactive
5,COc1ccc(CNC(=O)C2CCN(S(=O)(=O)c3ccc(C)cc3)CC2)cc1,inactive
6,CC(=O)N1N=C(c2ccc(Cl)cc2)CC1c1ccc([N+](=O)[O-])cc1 (stereo not given),inactive
7,CCC1CCCCN1CCCNC(=O)c1cc2c(=O)n(CC)c3ccccc3c2s1 (stereo not given),"inconclusive: 12.6 µM [activator, single point]"
8,Cc1cc(C)cc(-n2c(C)cc(C(=O)CSc3nnnn3C)c2C)c1,"inconclusive: 17.8 µM [inhibitor, single point]"
9,CCN(CC)c1ccc([N+](=O)[O-])cc1/C=N/NC(=O)CC#N,inactive
10,CN1CCN(CCCOc2ccc(-c3ccccc3)cc2)CC1,"inconclusive: 35.5 µM [inhibitor, single point]"
11,CC1Cc2cc(S(=O)(=O)N(C)c3ccc(Br)cc3)ccc2N1C(=O)C1CC1 (stereo not given),"inconclusive: 6.31 µM [inhibitor, full curve, poor fit]"
12,O=C(NNC(=S)NC(=O)c1cccnc1)c1ccc(F)cc1,inactive
13,O=C(CSc1nc(Cc2ccccc2)nc2ccccc12)Nc1nc2c(s1)CCCC2,"inconclusive: 6.51 µM [inhibitor, single point]"
14,CCOc1cc(N2CCOCC2)c(OCC)cc1NC(=O)Cn1nc(C)c([N+](=O)[O-])c1C,inactive
15,CCOC(=O)c1cc2c(=O)n3cccc(C)c3nc2n(CC(C)C)c1=NC(=O)c1ccco1,inactive
16,CC(=O)Nc1ccc(CN(C)CC2CCCN(CCc3cccc(C(F)(F)F)c3)C2)cc1 (stereo not given),"inconclusive: 35.5 µM [inhibitor, single point]"
17,Oc1ccccc1-c1cc(-c2ccc(F)cc2)n[nH]1,"inconclusive: 0.447 µM [activator, partial curve, poor fit]"
18,Cc1ccc(CC2C(=O)N(c3ccc(F)cc3)C(=O)C2C)cc1 (stereo not given),"inconclusive: 35.5 µM [inhibitor, single point]"
19,COc1ccccc1CN1CCN(C2CCN(C(=O)NC(C)C)CC2)C(=O)C1=O,"inconclusive: 1.41 µM [activator, full curve, poor fit]"
20,COc1ccc(C(C(=O)NC2CCCCC2)N(C(=O)c2sc(C)nc2C)c2ccccc2)cc1 (stereo not given),"inconclusive: 35.5 µM [inhibitor, single point]"
21,CCOC(=O)CC(=O)CSc1nnc2c(n1)[nH]c1ccccc12,inactive
22,Cc1ccc(C(=O)NC(=S)N2CCN(c3cc(C)ccc3C)CC2)cc1,"inconclusive: 10 µM [inhibitor, partial curve, poor fit]"
23,c1ccc(Cn2c(-c3ccco3)nc3nc4ccccc4nc32)cc1,"inconclusive: 11.2 µM [inhibitor, single point]"
24,Cc1ccc(NC(=O)c2ccc3[nH]c(C)cc(=O)c3c2)c(C)c1,inactive

row,Compound,Potency
1,Cc1ccc(NC(=O)Cc2coc3c(C)c(C)ccc23)cc1Cl,inactive
2,Cc1ccccc1N(CC(=O)Nc1ccc(F)cc1)S(C)(=O)=O,"inconclusive: 2.91 µM [activator, partial curve]"
3,O=C(Nc1cccc(O)c1)c1cccc(S(=O)(=O)N2CCCCCC2)c1,"inconclusive: 12.6 µM [inhibitor, partial curve]"
4,CC(CCc1ccccc1)NC(=O)/C=C/c1ccc(Cl)cc1 (stereo not given),"inconclusive: 28.2 µM [inhibitor, single point]"
5,O=C1N=C(N2CCc3ccccc3C2)S/C1=C\c1ccc(O)cc1,"inconclusive: 17.8 µM [inhibitor, partial curve, poor fit]"
6,O=C(CNCc1ccccc1)Nc1ccccc1-c1ccccc1,inactive
7,O=C(CC(c1ccccc1)c1ccccc1)Nc1ccncc1,"inconclusive: 11.2 µM [inhibitor, partial curve, poor fit]"
8,O=C(Nc1c2c(nc3ccccc13)CCCC2)c1cccc([N+](=O)[O-])c1,"inconclusive: 7.94 µM [inhibitor, partial curve, poor fit]"
9,Cn1cc([N+](=O)[O-])c(C(=O)Nc2cc(Oc3cccnc3)cc([N+](=O)[O-])c2)n1,inactive
10,CCn1cc(/C=N\NC(=O)c2ccc(F)cc2)cn1,"inconclusive: 1.26 µM [inhibitor, single point]"
11,OC(COc1ccccc1)CN1CCN(c2cccc(Cl)c2)CC1 (stereo not given),inactive
12,CN(Cc1nc2c(s1)CCCC2)C(=O)CCc1nnc(-c2ccccc2)o1,inactive
13,CCc1ccc2c(c1)-c1ccccc1S(=O)(=O)N2CC(=O)N1CCC(C)CC1,inactive
14,CCOc1cc(S(=O)(=O)N2CCOCC2)ccc1F,"inconclusive: 1 µM [activator, full curve, poor fit]"
15,C=CCNC(=O)c1ccc(C2SCC(=O)N2Cc2ccco2)cc1 (stereo not given),"inconclusive: 6.31 µM [inhibitor, full curve]"
16,O=C(NCCCN1CCOCC1)c1cc(Cl)ccc1[N+](=O)[O-],"inconclusive: 35.5 µM [activator, single point]"
17,O=C(/C=C\Nc1ccc(Cl)cn1)c1ccc(Br)cc1,"inconclusive: 7.08 µM [activator, single point]"
18,CCCC(=O)NC(c1ccccc1Cl)c1ccc2cccnc2c1O (stereo not given),"inconclusive: 0.562 µM [inhibitor, full curve, poor fit]"
19,Clc1cc(/C=N\NC2=NCCN2)cc(Cl)n1,"inconclusive: 8.91 µM [activator, partial curve, poor fit]"
20,FC(F)(F)c1cccc(NC(=S)N2CCN(c3ccccn3)CC2)c1,"inconclusive: 10 µM [inhibitor, partial curve, poor fit]"
21,COc1ccccc1N1CCN(CCCCOc2cccc3ccccc23)CC1,"inconclusive: 22.4 µM [inhibitor, single point]"
22,O=C(NCc1ccccc1)c1ccc(S(=O)(=O)N2CCCc3ccccc32)cc1,"inconclusive: 18.3 µM [inhibitor, partial curve, poor fit]"
23,C/C(CC(=O)Nc1cccnc1)=N\NC(=O)c1ccc([N+](=O)[O-])c(Cl)c1,inactive
24,Cc1ccc(NC(=O)Cn2c(-c3cncs3)nc3ccccc32)cc1Br,"inconclusive: 7.94 µM [inhibitor, partial curve, poor fit]"

# Three structures already listed, sorted by length of the SMILES, ascending.
row,Compound,Potency
17,Oc1ccccc1-c1cc(-c2ccc(F)cc2)n[nH]1,"inconclusive: 0.447 µM [activator, partial curve, poor fit]"
2,Cc1ccccc1N(CC(=O)Nc1ccc(F)cc1)S(C)(=O)=O,"inconclusive: 2.91 µM [activator, partial curve]"
22,Cc1ccc(C(=O)NC(=S)N2CCN(c3cc(C)ccc3C)CC2)cc1,"inconclusive: 10 µM [inhibitor, partial curve, poor fit]"

# Carrying on.

row,Compound,Potency
1,C/C(=C\C(=O)c1ccccc1)NNC(=O)c1ccc(Cl)cc1,"inconclusive: 8.91 µM [activator, partial curve, poor fit]"
2,Cc1ccc[n+](CC(=O)Nc2c(Cl)cc(Cl)cc2Cl)c1,inactive
3,CC(C)NC(=O)NC(=O)CSc1nnc(COc2ccccc2F)n1C(C)C1CC2CCC1C2 (stereo not given),active: 18.3 µM
4,CN(C)N1C(N)=C(C#N)C(c2cccnc2)C2=C1CCCC2=O (stereo not given),"inconclusive: 35.5 µM [activator, single point]"
5,CC(C)(C)C(=O)Nc1nnc(SCC(=O)NCc2cccs2)s1,"inconclusive: 0.517 µM [inhibitor, single point]"
6,O=C(/C=C/c1ccccc1)N1CCN(Cc2nc3ccccc3c(=O)[nH]2)CC1,"inconclusive: 29.1 µM [inhibitor, partial curve, poor fit]"
7,COc1ccc2c(c1O)-c1cccc3c1[C@@H](C2)N(C)CC3,"inconclusive: 0.0206 µM [activator, full curve, poor fit]"
8,COc1cccc(N2CCN(S(=O)(=O)c3ccc4nc(-c5ccccc5)[nH]c4c3)CC2)c1,inactive
9,Cc1ccc2nsnc2c1NC(=O)COc1ccccc1,inactive
10,COc1ccc(NC(=S)NC(=O)c2csnn2)cc1,inactive
11,CC(=O)Nc1cccc(Oc2ncnc3scc(-c4ccc(C(C)C)cc4)c23)c1,active: 2.51 µM
12,COc1ccc(-n2ncc3c(NCC(C)C)ncnc32)cc1,"inconclusive: 12.6 µM [inhibitor, single point]"
13,Cc1ccc(S(=O)(=O)NC(CC(N)=O)C(=O)O)cc1 (stereo not given),"inconclusive: 0.708 µM [activator, single point]"
14,O=C(NCCc1cccc(Cl)c1)c1ccc(Cl)c([N+](=O)[O-])c1,"inconclusive: 3.98 µM [inhibitor, single point]"
15,CS(=O)(=O)c1ccc(Cl)c(NC(=O)COC(=O)CNC(=O)c2ccccc2)c1,inactive
16,CC(C)(C)c1ccc(OCC(=O)Nc2ccc3c4c(cccc24)C(=O)NC3=O)cc1,"inconclusive: 23.1 µM [inhibitor, partial curve, poor fit]"
17,Clc1cnc(N/N=C/c2ccco2)c(Cl)c1,"inconclusive: 12.6 µM [inhibitor, single point]"
18,Cc1ccc(-c2nc3cc(C)ccc3o2)cc1,active: 14.1 µM
19,CCCCCC1C/C(=N\O)C=C(C)C1C(=O)OC (stereo not given),"inconclusive: 7.94 µM [inhibitor, full curve, poor fit]"
20,O=C(c1ccc(Cl)cc1)N1CCC(C(=O)N2CCN(c3ncccn3)CC2)CC1,inactive
21,CC(=O)NC(CC(=O)Nc1nc(-c2ccc(N(C)S(C)(=O)=O)cc2)cs1)c1ccccc1 (stereo not given),"inconclusive: 17.8 µM [inhibitor, single point]"
22,COc1ccc(NC(=O)/C=C/c2cccc(C(F)(F)F)c2)cn1,"inconclusive: 3.16 µM [inhibitor, single point]"

# Some of the entries above, reformatted.
row | Compound | Potency
9 | Cc1ccc2nsnc2c1NC(=O)COc1ccccc1 | inactive
10 | COc1ccc(NC(=S)NC(=O)c2csnn2)cc1 | inactive

# — PubChem BioAssay AID540256 (National Center for Advancing Translational Sciences (NCATS), 2011)
